The record followed here is PMC10761890.

The chains behind the UniProt entries cited, without tags or fusion partners. Where a name states a change or a piece, a line headed by the entry shows the natural chain unless it says otherwise.
UniProt O35516: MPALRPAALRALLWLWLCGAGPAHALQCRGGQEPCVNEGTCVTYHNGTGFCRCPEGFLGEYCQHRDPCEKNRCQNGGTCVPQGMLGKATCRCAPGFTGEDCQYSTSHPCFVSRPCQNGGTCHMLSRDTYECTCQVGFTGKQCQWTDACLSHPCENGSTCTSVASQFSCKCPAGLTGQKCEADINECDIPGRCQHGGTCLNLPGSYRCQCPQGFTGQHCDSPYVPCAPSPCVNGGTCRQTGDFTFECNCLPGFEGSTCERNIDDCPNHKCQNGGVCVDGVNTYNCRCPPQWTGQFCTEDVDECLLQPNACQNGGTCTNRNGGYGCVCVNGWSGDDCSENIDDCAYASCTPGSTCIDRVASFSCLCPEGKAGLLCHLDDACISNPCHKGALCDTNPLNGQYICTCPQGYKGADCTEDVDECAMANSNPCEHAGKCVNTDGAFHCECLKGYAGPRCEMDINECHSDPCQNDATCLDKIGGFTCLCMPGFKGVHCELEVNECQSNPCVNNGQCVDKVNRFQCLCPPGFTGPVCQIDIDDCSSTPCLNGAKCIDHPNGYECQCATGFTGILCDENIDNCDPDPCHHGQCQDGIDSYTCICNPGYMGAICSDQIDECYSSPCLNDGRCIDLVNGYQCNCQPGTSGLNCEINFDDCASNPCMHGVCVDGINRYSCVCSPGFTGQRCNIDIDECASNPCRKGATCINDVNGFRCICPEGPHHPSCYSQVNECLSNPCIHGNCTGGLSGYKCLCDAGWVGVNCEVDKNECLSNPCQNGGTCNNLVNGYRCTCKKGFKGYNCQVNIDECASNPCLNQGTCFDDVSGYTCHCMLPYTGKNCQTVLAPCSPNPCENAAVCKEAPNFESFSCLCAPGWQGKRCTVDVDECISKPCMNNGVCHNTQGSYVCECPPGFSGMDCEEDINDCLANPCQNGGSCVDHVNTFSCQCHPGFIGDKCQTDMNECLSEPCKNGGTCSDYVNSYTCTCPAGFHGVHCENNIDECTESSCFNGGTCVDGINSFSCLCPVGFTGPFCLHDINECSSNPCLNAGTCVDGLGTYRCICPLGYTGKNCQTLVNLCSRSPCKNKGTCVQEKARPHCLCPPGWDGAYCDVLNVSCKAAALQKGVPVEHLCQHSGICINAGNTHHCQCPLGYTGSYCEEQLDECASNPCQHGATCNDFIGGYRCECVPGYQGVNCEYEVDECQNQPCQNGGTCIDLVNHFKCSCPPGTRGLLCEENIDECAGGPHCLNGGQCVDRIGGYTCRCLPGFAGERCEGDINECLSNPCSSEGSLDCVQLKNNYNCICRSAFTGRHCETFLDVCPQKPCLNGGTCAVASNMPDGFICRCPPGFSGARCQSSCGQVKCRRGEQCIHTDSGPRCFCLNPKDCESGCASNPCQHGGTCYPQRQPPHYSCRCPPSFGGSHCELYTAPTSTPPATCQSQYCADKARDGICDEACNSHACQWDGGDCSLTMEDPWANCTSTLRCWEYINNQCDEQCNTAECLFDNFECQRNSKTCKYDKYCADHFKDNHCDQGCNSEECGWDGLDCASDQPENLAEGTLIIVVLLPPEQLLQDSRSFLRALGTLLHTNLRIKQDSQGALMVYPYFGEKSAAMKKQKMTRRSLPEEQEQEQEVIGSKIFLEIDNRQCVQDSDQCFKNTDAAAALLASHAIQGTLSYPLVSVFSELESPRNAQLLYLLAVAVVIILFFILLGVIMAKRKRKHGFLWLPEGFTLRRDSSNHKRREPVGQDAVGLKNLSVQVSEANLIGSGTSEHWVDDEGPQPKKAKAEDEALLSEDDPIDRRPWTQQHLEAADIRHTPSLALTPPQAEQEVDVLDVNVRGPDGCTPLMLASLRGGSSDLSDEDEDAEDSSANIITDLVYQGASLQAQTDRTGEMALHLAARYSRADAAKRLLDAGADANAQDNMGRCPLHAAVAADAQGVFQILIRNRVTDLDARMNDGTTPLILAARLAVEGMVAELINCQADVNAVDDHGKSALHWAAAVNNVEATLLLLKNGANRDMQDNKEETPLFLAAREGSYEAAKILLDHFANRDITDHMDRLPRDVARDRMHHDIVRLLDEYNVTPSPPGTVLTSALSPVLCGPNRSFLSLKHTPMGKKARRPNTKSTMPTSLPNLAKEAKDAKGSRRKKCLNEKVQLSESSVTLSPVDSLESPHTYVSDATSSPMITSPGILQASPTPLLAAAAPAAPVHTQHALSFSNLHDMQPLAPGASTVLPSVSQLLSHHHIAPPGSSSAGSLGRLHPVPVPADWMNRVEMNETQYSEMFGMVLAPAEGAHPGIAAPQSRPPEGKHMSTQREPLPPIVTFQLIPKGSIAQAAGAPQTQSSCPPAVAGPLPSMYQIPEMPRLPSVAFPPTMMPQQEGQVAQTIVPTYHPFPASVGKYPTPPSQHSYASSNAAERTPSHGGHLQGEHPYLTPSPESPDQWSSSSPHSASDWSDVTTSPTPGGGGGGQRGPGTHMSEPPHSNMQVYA
UniProt Q01705: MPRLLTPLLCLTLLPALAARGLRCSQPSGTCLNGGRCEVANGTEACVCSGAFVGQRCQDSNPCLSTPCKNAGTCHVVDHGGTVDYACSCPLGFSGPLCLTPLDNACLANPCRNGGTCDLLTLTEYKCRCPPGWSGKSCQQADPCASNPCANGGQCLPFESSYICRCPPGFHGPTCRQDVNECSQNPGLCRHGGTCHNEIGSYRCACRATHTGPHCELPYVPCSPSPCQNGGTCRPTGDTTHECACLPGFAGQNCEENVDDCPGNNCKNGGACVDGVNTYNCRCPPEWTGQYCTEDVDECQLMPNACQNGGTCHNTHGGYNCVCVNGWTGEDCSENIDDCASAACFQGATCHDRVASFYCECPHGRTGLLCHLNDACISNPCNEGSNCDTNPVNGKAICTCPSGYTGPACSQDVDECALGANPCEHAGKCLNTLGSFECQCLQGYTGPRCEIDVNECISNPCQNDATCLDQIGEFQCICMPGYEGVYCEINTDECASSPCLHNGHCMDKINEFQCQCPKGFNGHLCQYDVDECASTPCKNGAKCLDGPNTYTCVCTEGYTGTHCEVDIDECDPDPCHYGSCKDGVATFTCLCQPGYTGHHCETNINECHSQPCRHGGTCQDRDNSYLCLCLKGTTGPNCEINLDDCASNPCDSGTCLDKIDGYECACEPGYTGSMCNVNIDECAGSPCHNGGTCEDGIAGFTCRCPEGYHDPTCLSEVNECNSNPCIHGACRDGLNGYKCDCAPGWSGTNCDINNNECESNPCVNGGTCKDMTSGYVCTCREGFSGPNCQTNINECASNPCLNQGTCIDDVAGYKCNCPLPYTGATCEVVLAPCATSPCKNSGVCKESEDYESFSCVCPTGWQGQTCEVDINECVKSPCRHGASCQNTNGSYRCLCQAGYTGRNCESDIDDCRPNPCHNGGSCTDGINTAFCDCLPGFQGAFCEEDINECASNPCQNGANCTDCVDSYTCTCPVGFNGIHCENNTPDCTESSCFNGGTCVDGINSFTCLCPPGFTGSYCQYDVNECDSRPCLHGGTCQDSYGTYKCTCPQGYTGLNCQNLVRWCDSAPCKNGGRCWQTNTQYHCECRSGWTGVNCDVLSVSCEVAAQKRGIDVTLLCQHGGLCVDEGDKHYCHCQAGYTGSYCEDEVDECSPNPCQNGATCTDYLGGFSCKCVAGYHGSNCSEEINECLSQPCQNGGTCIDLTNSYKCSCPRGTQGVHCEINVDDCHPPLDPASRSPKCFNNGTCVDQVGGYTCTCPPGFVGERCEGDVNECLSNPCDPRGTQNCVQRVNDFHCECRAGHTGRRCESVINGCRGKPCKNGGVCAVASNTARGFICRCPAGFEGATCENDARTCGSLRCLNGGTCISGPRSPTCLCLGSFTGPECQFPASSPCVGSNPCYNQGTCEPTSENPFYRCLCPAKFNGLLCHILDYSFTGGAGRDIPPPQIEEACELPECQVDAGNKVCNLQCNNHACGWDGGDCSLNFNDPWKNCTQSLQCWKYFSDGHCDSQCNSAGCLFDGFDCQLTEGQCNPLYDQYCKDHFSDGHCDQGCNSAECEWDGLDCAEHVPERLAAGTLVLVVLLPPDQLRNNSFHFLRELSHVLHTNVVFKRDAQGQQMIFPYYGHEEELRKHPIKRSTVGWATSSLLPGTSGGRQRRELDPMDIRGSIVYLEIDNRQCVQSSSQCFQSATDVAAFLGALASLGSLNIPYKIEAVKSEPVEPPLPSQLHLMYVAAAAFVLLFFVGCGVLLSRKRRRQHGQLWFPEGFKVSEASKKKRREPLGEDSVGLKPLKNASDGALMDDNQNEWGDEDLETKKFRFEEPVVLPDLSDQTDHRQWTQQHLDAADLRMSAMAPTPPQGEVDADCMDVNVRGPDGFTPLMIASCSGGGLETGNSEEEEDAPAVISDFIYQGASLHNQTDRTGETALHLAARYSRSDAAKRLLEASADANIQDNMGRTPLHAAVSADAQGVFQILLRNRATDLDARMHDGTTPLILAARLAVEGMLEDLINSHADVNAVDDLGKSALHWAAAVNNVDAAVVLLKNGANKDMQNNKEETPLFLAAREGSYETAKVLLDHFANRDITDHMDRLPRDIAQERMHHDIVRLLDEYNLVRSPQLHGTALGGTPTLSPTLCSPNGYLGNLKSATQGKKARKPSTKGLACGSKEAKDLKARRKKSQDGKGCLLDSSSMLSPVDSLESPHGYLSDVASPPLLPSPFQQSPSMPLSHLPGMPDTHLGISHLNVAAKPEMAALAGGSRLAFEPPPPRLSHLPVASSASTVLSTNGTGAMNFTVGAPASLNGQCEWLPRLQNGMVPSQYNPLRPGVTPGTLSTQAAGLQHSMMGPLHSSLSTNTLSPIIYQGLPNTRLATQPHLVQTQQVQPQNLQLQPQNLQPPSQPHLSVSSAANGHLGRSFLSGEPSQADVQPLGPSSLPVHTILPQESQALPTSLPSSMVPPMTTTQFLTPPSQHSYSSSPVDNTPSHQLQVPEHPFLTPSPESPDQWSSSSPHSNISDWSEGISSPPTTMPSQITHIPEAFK

Results are given in words; binding and its absence hold for the method and conditions named. Binding seen in cells or lysates may run through a third protein. Binding calls can cover weak binding; strength is not graded here.

Common to all, as to assay: co-IP; 293T cells co-transfected with a FLAG-tagged and an HA-tagged NICD; lysates 48 h after transfection; anti-FLAG resin, western blot with anti-HA
(In general: In western blotting, separated proteins are transferred to a membrane and probed.)

Test [1] concerns the target Notch4 intracellular domain (mouse), full-length N4ICD (mouse) (UniProt P31695).
Test [2] deals with Notch3 intracellular domain (mouse), N3ICD (mouse) (UniProt Q61982).
In test [3] the target is Notch2 intracellular domain (mouse), N2ICD (mouse) (UniProt O35516).
Test [4] addresses N1ICD lacking the C-terminus (RAM/Ank), FLAG-tagged (mouse) (UniProt Q01705).
In test [5] the target is isolated N1ICD ankyrin domain (Ank), FLAG-tagged (mouse) (UniProt Q01705).

As to “Notch1 intracellular domain (mouse), full-length N1ICD (from UniProt Q01705) (domain or fragment)”, in test [1], the binding entry is given as “binds”.
As for “Notch2 intracellular domain (mouse), N2ICD (from UniProt O35516) (domain or fragment)”, the binding result is “binds” in test [1] and “binds weakly” in test [2].
As for “Notch3 intracellular domain (mouse), N3ICD (from UniProt Q61982) (domain or fragment)”, the binding entry in test [3] and in test [1] was “binds” each time.
Take “Notch4 intracellular domain (mouse), full-length N4ICD (from UniProt P31695) (domain or fragment)”: the binding result in test [4], in test [3], in test [5] and in test [2] was “binds” in each case.
